Values from PubChem BioAssay AID1224830 (NIAID, 2016)

Aim: 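Genes whose knock-down alters the TNF-alpha reporter response to LPS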 (primary screen)
Cells: human THP-1 monocytic leukaemia cells, TNF dual-luciferase reporter clone, PMA-differentiated to macrophage-like cells
Reagents: siRNA pool against human genes, 50 nM
Time to read-out: LPS for 4 h, given about 3 days after siRNA transfection
Treatment: bacterial LPS (TLR4 ligand), 10 ng/ml
Measured: 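TNF firefly reporter luminescence divided by renilla, normalised to the plate median, then turned into a robust z-score for each replicate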
Scale: TNF reporter robust z-score: higher = stronger TNF reporter response to LPS
Active means: 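a well is active when its z-score exceeds 2.8 or falls below -1.5; control wells carry no call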
The deposit covers about 18,000 reagents; this is a random part of them. Over the whole deposit, about 2,900 (16%) are marked active. 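Calls are made per well; low scores hint the gene aids the LPS response, high scores that it dampens it.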 Entries without a mark were called inactive. Repeated entries: four replicate wells of each siRNA pool.

gene | TNF reporter robust z-score
MRPL47 | 0.54
MRPL47 | 1.61
MRPL47 | 0.96
MRPL47 | 0.19
SST | 4.2 (active)
SST | 1.27
SST | 1.43
SST | -0.77
FLOT1 | -0.41
FLOT1 | 0.7
FLOT1 | 0.17
FLOT1 | -0.46
NUDT10 | -0.2
NUDT10 | -0.06
NUDT10 | 0.44
NUDT10 | -0.52
C14orf93 | 1.41
C14orf93 | 0.51
C14orf93 | -0.83
C14orf93 | -0.7
TIMM29 | -1.22
TIMM29 | -0.16
TIMM29 | -0.79
TIMM29 | -0.86
EBP | 0.33
EBP | 0.32
EBP | -1.14
EBP | 0.24
ATP6V0B | 0.14
ATP6V0B | 0.52
ATP6V0B | -0.18
ATP6V0B | -0.31
BTBD17 | 0.23
BTBD17 | 1.65
BTBD17 | 0.01
BTBD17 | 0.84
NELFCD | 0.37
NELFCD | 0.9
NELFCD | -0.3
NELFCD | -0.15
STARD3 | 1.91
STARD3 | -0.32
STARD3 | -0.07
STARD3 | -0.09
ARMC10 | 3.68 (active)
ARMC10 | 2.94 (active)
ARMC10 | 2.05
ARMC10 | 1.25
CCDC70 | 0.15
CCDC70 | 1.76
CCDC70 | 0.79
CCDC70 | 1.49
ZNF230 | -0.93
ZNF230 | -0.56
ZNF230 | -0.38
ZNF230 | -0.63
CLSTN1 | 2.6
CLSTN1 | 3.67 (active)
CLSTN1 | -1.04
CLSTN1 | 4.16 (active)
JDP2 | -0.46
JDP2 | 0.08
JDP2 | -0.52
JDP2 | -0.21
MAP3K21 | -0.73
MAP3K21 | -0.46
MAP3K21 | -1.11
MAP3K21 | 0.33
ETHE1 | -0.22
ETHE1 | 0.82
ETHE1 | -0.92
ETHE1 | -0.14
DONSON | 1.35
DONSON | 2.32
DONSON | 0.81
DONSON | 0.88
ABHD16A | -1.23
ABHD16A | -0.46
ABHD16A | -0.56
ABHD16A | -0.7
SERPINB9 | -0.03
SERPINB9 | 0.31
SERPINB9 | -0.68
SERPINB9 | 0.3
FHL2 | -1.29
FHL2 | -1.06
FHL2 | -0.93
FHL2 | -1.18
MFGE8 | -0.29
MFGE8 | -1.11
MFGE8 | -1.32
MFGE8 | -0.11
HTN1 | 0.5
HTN1 | 0.37
HTN1 | -0.05
HTN1 | -0.61
ZC3H10 | -0.55
ZC3H10 | 0.31
ZC3H10 | 1.37
ZC3H10 | 0.39
ETS2 | -0.4
ETS2 | -0.09
ETS2 | -0.21
ETS2 | 0.12
OGN | 0.08
OGN | 1.61
OGN | 2.43
OGN | 1.75
ULK3 | -1.09
ULK3 | -0.55
ULK3 | -1.1
ULK3 | -0.25

16 entries from above in another layout.
gene,TNF reporter robust z-score
CLSTN1,4.16 (active)
JDP2,-0.46
JDP2,0.08
JDP2,-0.52
JDP2,-0.21
MAP3K21,-0.73
MAP3K21,-0.46
MAP3K21,-1.11
MAP3K21,0.33
ETHE1,-0.22
ETHE1,0.82
ETHE1,-0.92
ETHE1,-0.14
DONSON,1.35
DONSON,2.32
DONSON,0.81
